Assay results from PubChem BioAssay (EPA / NIEHS).
The shares of active, inactive and inconclusive entries below differ from those in the screen. A potency beside an inconclusive call is a rough fit, not a confirmed value. Active and inactive are the calls of the source. Rule for the calls: active = hit-call score of the fitted dose curve at least 0.9, where 1 is the maximum; inconclusive = response in the unintended direction; inactive = score below 0.9.

Amino acid sequences for entries named in this document (tags omitted). A change or cut given only in a name is not applied to a line headed by its entry.
UniProt Q15678: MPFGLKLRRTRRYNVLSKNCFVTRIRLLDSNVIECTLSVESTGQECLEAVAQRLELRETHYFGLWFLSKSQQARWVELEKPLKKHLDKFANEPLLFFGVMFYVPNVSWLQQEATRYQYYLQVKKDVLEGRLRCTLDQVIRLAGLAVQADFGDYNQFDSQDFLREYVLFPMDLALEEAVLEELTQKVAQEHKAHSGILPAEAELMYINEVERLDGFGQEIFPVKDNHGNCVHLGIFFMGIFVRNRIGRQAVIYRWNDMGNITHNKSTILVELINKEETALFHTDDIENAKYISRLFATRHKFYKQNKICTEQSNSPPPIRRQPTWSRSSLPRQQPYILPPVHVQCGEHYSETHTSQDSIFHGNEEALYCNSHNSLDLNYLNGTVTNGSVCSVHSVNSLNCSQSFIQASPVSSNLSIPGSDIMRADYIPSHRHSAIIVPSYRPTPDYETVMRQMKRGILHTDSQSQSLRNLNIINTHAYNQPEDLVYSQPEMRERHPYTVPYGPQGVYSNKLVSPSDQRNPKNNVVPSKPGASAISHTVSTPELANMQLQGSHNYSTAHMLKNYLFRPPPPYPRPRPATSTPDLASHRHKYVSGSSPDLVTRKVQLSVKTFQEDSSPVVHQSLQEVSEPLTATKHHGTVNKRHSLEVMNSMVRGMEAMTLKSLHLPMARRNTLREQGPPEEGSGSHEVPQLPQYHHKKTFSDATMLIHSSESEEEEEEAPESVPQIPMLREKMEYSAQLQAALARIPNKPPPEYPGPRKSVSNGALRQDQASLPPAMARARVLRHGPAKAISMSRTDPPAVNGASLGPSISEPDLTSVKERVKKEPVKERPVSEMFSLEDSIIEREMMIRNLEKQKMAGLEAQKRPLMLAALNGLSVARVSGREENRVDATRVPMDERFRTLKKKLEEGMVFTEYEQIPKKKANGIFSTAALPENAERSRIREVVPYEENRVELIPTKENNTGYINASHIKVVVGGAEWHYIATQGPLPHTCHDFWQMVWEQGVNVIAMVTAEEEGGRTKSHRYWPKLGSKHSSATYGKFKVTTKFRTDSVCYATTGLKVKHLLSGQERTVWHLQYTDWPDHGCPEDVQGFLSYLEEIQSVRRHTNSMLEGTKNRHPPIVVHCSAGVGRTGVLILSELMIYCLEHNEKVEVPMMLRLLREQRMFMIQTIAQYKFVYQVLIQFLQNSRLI
UniProt P29074: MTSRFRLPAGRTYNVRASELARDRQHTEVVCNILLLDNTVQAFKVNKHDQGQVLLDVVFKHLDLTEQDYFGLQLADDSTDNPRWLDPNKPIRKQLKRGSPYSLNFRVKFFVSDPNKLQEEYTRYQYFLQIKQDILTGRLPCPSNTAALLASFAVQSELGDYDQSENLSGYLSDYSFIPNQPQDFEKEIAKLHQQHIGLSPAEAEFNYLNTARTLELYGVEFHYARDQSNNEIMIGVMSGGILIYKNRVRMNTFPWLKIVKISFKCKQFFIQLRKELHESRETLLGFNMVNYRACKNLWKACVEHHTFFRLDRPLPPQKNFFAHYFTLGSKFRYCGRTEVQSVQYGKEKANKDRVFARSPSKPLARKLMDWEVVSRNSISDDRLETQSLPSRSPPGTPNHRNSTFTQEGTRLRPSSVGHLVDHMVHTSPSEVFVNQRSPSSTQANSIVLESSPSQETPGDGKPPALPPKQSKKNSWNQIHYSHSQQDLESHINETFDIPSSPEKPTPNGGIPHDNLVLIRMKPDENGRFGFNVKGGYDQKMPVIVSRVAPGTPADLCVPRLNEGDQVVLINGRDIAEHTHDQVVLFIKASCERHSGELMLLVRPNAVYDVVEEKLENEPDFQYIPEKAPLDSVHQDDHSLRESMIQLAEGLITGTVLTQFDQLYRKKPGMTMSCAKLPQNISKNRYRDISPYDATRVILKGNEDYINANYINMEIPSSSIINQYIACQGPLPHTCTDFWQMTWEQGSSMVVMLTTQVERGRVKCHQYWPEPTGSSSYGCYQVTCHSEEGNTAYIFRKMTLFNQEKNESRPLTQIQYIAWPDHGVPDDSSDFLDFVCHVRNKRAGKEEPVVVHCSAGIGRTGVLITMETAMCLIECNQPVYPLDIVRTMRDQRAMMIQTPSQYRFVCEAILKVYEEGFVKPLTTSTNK

molecular target: Tyrosine-protein phosphatase non-receptor type 14 (Homo sapiens) (UniProt Q15678); assay: NVS_ENZ_hPTPN14: NovaScreen (NVS) Enzymatic Assay for human Protein Tyrosine Phosphatase Non-receptor Type 14 (PTPN14) (AID 2283206)
Outline: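 Fluorescent substrate turnover by recombinant human PTPN14 was measured 0.5 h after compound addition, with substrate and product separated by mobility shift. Single-point screening at 25 uM, then concentration-response up to 50 uM for chemicals meeting threshold (e.g., 30% inhibition).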

Row | SMILES | AC50 | outcome
1 | CC(C)(C)C(O)C(Oc1ccc(Cl)cc1)n1cncn1 (stereo unspecified) | inconclusive: 0.383 µM | –
2 | COP(=S)(OC)Oc1nc(Cl)c(Cl)cc1Cl | inconclusive: 5.85 µM | –
3 | CCOC(=O)COc1cc(-c2nn(C)c(OC(F)F)c2Cl)c(F)cc1Cl | inconclusive: 25 µM | –
4 | Cc1cc2c3c(c1)C(c1ccccc1)=N[C@@H](NC(=O)c1ccncc1)C(=O)N3CC2 | inconclusive: 25 µM | –
5 | O=C1C2CC=CCC2C(=O)N1SC(Cl)(Cl)Cl (stereo unspecified) | – | inactive
6 | CCCCOC(=O)c1ccccc1C(=O)OCCCC | inconclusive: 25 µM | –
7 | N#Cc1cccnc1 | inconclusive: 25 µM | –
8 | CCC(=O)O[C@H]1CC[C@H]2[C@@H]3CCC4=CC(=O)CC[C@]4(C)[C@H]3CC[C@]12C | inconclusive: 0.342 µM | –
9 | CCNS(=O)(=O)C(F)(F)C(F)(F)C(F)(F)C(F)(F)C(F)(F)C(F)(F)C(F)(F)C(F)(F)F | inconclusive: 42 µM | –
10 | CCCCCCCc1ccc(O)cc1 | inconclusive: 25 µM | –
11 | CCCCNC(=O)OCC#CI | – | inactive
12 | C[C@]12CCC(=O)C[C@@H]1CC[C@@H]1[C@@H]2CC[C@]2(C)[C@@H](O)CC[C@@H]12 | inconclusive: 21.8 µM | –
13 | O=[N+]([O-])c1c(Cl)c(Cl)c(Cl)c(Cl)c1Cl | inconclusive: 25 µM | –

molecular target: human Protein Tyrosine Phosphatase Non-receptor Type 4 (PTPN4), PTPN4 (gene 5775) (UniProt P29074); assay: NVS_ENZ_hPTPN4: NovaScreen (NVS) Enzymatic Assay for human Protein Tyrosine Phosphatase Non-receptor Type 4 (PTPN4) (AID 2283208)
Outline: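 Screened in duplicate at 25 uM, with hits then titrated to a top concentration of 50 uM. Recombinant Sf9-derived PTPN4 turnover was read by fluorescence with electrophoretic separation, 1.33 h after compound addition. DMSO served as baseline.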

Row | SMILES | AC50 | outcome
14 | O=C(N[C@H]1CN2CCC1CC2)c1ccc2c(c1)OCCO2 | inconclusive: 5.87 µM | –
15 | CC(C)(C)C(O)C(Oc1ccc(Cl)cc1)n1cncn1 (stereo unspecified) | inconclusive: 25 µM | –
16 | COc1nc(NC(C)C)nc(NC(C)C)n1 | inconclusive: 0.0727 µM | –
17 | O=C(O)C(F)(F)C(F)(F)C(F)(F)C(F)(F)C(F)(F)F | – | inactive
18 | CNC(=S)S | inconclusive: 0.116 µM | –
19 | CCCN(CCC)c1c([N+](=O)[O-])cc(S(N)(=O)=O)cc1[N+](=O)[O-] | inconclusive: 0.502 µM | –
20 | CC(C)(C)OOC(C)(C)C | inconclusive: 13.1 µM | –
21 | CC1=C2C[C@H]3[C@@H](CC=C4C[C@@H](O)CC[C@@]43C)[C@@H]2CC[C@]12O[C@@H]1C[C@H](C)CN[C@H]1[C@H]2C | active: 16 µM | –
22 | O=C(O)CCCOc1ccc(Cl)cc1Cl | inconclusive: 25 µM | –
23 | CC(C)(C)c1ccc(CSc2cnn(C(C)(C)C)c(=O)c2Cl)cc1 | inconclusive: 25 µM | –
24 | C[N+](C)(C)CC1CO1 (stereo unspecified) | inconclusive: 44 µM | –
25 | CCCCNC(=O)OCC#CI | inconclusive: 0.0665 µM | –
26 | CC(C)C(=O)OCC(C)(C)C(OC(=O)C(C)C)C(C)C (stereo unspecified) | – | inactive
